# Values quoted from earlier work as cited in article PMC4029159 (Journal of medicinal chemistry, 2013).
# Test system: Vero
# Details: read-out: Cellular IC50 Vero; ref [15]; cited from earlier work
smiles,measurement,value
"O=C(CCCCCCC(=O)Nc1ccccc1)NO [SAHA, suberoylanilide hydroxamic acid]",IC50,5.2 ± 0.96 µM
